# Results published in PubChem BioAssay AID588497 (NMMLSC, 2011).
# Screen size: about 360,000 compounds; about 780 (0.22%) were called active. Inconclusive means that the source gave no clear call. Such entries were picked first, then a sample of the others. No stated cut-off is given here; in the data, active means inhibition above about 35% (passing the limit was not always enough); inconclusive means no clear call, values can overlap the other calls.
# Test system: Botulinum neurotoxin type F light chain protease (Clostridium botulinum)
# Assay: BoNT/F light chain protease inhibitors, primary screen, biochemical, flow cytometry, MLPCN library (AID 588497); further: plate controls were buffer without enzyme for full effect and enzyme alone for no effect
# Conditions: Multiplex microsphere protease cleavage assay, at 10 µM, active compounds read high
row,SMILES,inhibition
1,Cc1nnc(NC(=O)C2=COCCO2)s1,inconclusive: 11.5%
2,N#Cc1ccc(S(=O)(=O)N2CCN(C(=O)c3cn(-c4ccccc4)nc3-c3cccnc3)CC2)cc1,inactive: -1.1%
3,CCCCNC(=O)C1CCN(S(=O)(=O)c2cnc[nH]2)CC1,inconclusive: 36%
4,CCCCN(C=O)c1c(CC)nc2ccc(C(=O)NCc3ccc4c(c3)OCO4)cn12,inactive: 0%
5,Cc1nc([N+](=O)[O-])cn1CCCCN1C(=O)c2ccccc2C1=O,inconclusive: 28.9%
6,CCCC1CCC(c2ccc(OCC)cc2)=CC1=O (centres undefined),inconclusive: 22.4%
7,COc1ccc(CN2CCC(C(=O)c3cccc(Cl)c3)CC2)cc1,inconclusive: 1.8%
8,COc1ccccc1Oc1ccc(S(=O)(=O)N2CCCCC2C)cc1 (centres undefined),inactive: -2.7%
9,COc1ccc(NC(=O)c2cccnc2)cc1OCC(C)C,inconclusive: 26%
10,O=C(CSc1nnc2scc(-c3ccccc3)n12)NCc1ccco1,inactive: -7.3%
11,CCCCOc1ccc(/C=N/NC(=O)C2CCCNC2=O)cc1 (centres undefined),inconclusive: 11.3%
12,Cc1cc(C)c(C(=O)COC(=O)CCNS(=O)(=O)c2c(Cl)cccc2Cl)cc1C,inactive: 14.2%
13,CC(=O)CCc1oc2ccc(C)cc2c1-c1ccccc1,inconclusive: 24.1%
14,CC(OC(=O)CCN=C1NS(=O)(=O)c2ccccc21)C(=O)Nc1ccc(F)c(F)c1F (centres undefined),inconclusive: 26.3%
15,CCC(CC)CN1CCN=C1N(C)C,inactive: 5.2%
16,COc1ccc(Cn2c(C)nc3c(c(=O)c4ccccc4n3C)c2=O)cc1,inconclusive: 120%
17,Cc1cccc(/N=C/C2=C(O)CC(C)(C)CC2=O)n1,inconclusive: 46.6%
18,CCCn1c(SCC(=O)Nc2ccc3c(c2)OCCO3)n[nH]c1=O,inconclusive: -23.3%
19,CC(=O)C(c1ccccc1)C(c1ccccc1)C(C)[N+](=O)[O-] (centres undefined),inactive: -3.6%
20,Nc1nc(NCc2ccco2)nc(Nc2ccc(F)cc2)c1[N+](=O)[O-],inconclusive: -12.4%

# Quoted from the listing.
# Entry of Cc1cc(C)c(C(=O)COC(=O)CCNS(=O)(=O)c2c(Cl)cccc2Cl)cc1C under inhibition: inactive: 14.2%
# Entry of Cc1cccc(/N=C/C2=C(O)CC(C)(C)CC2=O)n1 under inhibition: inconclusive: 46.6%

# (further entries)

row,SMILES,inhibition
1,COc1ccc(CSC2=C(C#N)C(=O)NC3(CCCCC3)S2)cc1,inactive: -3.1%
2,CCCc1cc(=O)n2[nH]c(C)c(-c3ccc(OC)cc3)c2n1,inconclusive: 11.5%
3,CCn1c(=O)c([N+](=O)[O-])c(NCc2ccc3c(c2)OCO3)c2ccccc21,inconclusive: -42.9%
4,Cc1ccc(C)c(NC(=S)NNC(=O)c2csc(C(C)C)c2)c1,inactive: -2.6%
5,O=c1cc(-c2ccccc2)c2ccc(O)c(CN3CCCCC3)c2o1,inactive: -6%
6,O=C(NC(=S)N1CCCCC1)c1csc([N+](=O)[O-])c1,inconclusive: -33.8%
7,c1ccc(Cn2c[n+](Cc3ccccc3)c3ccccc32)cc1,inactive: -3.1%
8,Cc1ccc(-c2csc3ncnc(N4CCN(Cc5ccccc5)CC4)c23)cc1,inconclusive: -20.4%
9,COc1ccc(OC)c(CC(=O)N2CCc3cc(OC)c(OC)cc3C2)c1,inconclusive: -2%
10,COc1ccc(C(=O)NCC2(c3ccc(OC)c(OC)c3)CCCC2)c(OC)c1,inconclusive: -5.5%
11,CCCCn1c(-c2ccco2)nc2ccccc2c1=O,inconclusive: 19.1%
12,Cc1ccc(OCCNC(=O)c2ccccc2O)cc1,active: 35.7%
13,CCn1c(C)nnc1SCC(=O)Nc1cccc(C(F)(F)F)c1,inconclusive: 1.3%
14,COc1ccc(Br)cc1S(=O)(=O)NCc1ccccn1,inconclusive: -2.5%
15,CCOc1cc(C(=S)N2CCCC2)ccc1OC,inactive: 7.2%
16,Cc1ccc(N(CC(O)CN2C(=O)NC(C)(C)C2=O)S(=O)(=O)c2ccc(C)cc2)cc1 (centres undefined),inactive: -6.5%
17,Clc1ccc(Cl)c(-c2nc(-c3ccncc3)no2)c1,inconclusive: -24.1%
18,CC(C)Oc1ccc(C(=O)NC(Cc2c[nH]c3ccccc23)C(=O)NN)cc1 (centres undefined),inconclusive: 4.4%
19,COc1ccc(C)cc1S(=O)(=O)N1CCN(c2ccccc2)CC1,inconclusive: -14.7%
20,CC1CCN(C(=O)c2ccc(N3C(=O)C4CCC(C)CC4C3=O)cc2)CC1 (centres undefined),inconclusive: -0.3%

row,SMILES,inhibition
1,CCCN1C2CCCC1CC(NC(=O)c1cccc(OC)c1)C2 (centres undefined),active: 34.7%
2,Cc1ccc(NC(=O)CCn2cnc3ccccc3c2=O)cc1Cl,inactive: -9.9%
3,COc1ccc(CN2C(=NC(=O)c3ccccc3)SC3CS(=O)(=O)CC32)cc1 (centres undefined),inactive: 0.5%
4,Cc1cnn(-c2nc(-c3cccs3)cc(C(F)(F)F)n2)c1,inactive: 0.2%
5,CCOC(=O)/C(C(N)=NCc1ccco1)=C(/O)c1ccccc1,inactive: -1.9%
6,COc1ccc(SCC(=O)c2cc(C)c(OC(=S)N(C)C)c(C)c2)cc1,inconclusive: 9.1%
7,CCc1ccccc1NC(=S)Nc1cc(OC)c(NC(=O)C(C)C)cc1OC,inconclusive: -21.4%
8,CC1(C(=O)Nc2ccccc2)Cc2c(-c3ccc4c(c3)OCO4)ccnc2O1 (centres undefined),inactive: -0.4%
9,COc1ccccc1NC(=O)N(C)C[C@@H]1Oc2ncc(Br)cc2C(=O)N([C@H](C)CO)C[C@@H]1C,inactive: -5.1%
10,CC1(C(=O)N/N=C/c2c(F)c(F)c(F)c(F)c2F)CC1(Cl)Cl (centres undefined),inconclusive: 32.2%
11,O=C(N/N=C/C(Br)=C/c1ccccc1)C(O)c1ccccc1 (centres undefined),inconclusive: -4.4%
12,CC(NC(=O)CCN1C(=O)c2ccccc2C1=O)c1ccccc1 (centres undefined),inconclusive: 33.5%
13,O=C(CC1CCC1)Nc1cccc2c([N+](=O)[O-])cccc12,inconclusive: -70.2%
14,O=C(O)c1sccc1S(=O)(=O)N1CCOCC1,inconclusive: -7.4%
15,OC[C@@H]1CN(Cc2ccc(-c3ccccc3)cc2)C[C@H](n2cnc3c(NC4CC4)ncnc32)O1,inactive: 10.4%
16,COc1ccc(C(=O)CSc2nnc(CN3CCCC3)n2-c2ccc(F)cc2)c(OC)c1,active: 38.7%
17,NS(=O)(=O)c1ccc(NC(=O)Cc2cccs2)cc1,inconclusive: 17.9%
18,Cc1ccccc1C(=O)Oc1ccc(-c2csnn2)cc1,inconclusive: 57%
19,COc1ccc(CNS(=O)(=O)c2ccc3oc(C(=O)O)c(C)c3c2)cc1,inactive: -1.7%

# Some of the entries so far, tab-delimited.
row	SMILES	inhibition
2	Cc1ccc(NC(=O)CCn2cnc3ccccc3c2=O)cc1Cl	inactive: -9.9%
4	Cc1cnn(-c2nc(-c3cccs3)cc(C(F)(F)F)n2)c1	inactive: 0.2%
12	CC(NC(=O)CCN1C(=O)c2ccccc2C1=O)c1ccccc1 (centres undefined)	inconclusive: 33.5%
18	Cc1ccccc1C(=O)Oc1ccc(-c2csnn2)cc1	inconclusive: 57%
